Assay results reported in the M2OR odorant receptor database.
Where a chain is given by its changes, count along the chain named. Some of the results follow. The calls were merged from several studies; some rest on single wells.

Chains of the proteins cited; added tags and fusions are not shown. Chains listed by the source or under a name are the forms on record and can include a tag or linker.
O11H2, as listed by the source: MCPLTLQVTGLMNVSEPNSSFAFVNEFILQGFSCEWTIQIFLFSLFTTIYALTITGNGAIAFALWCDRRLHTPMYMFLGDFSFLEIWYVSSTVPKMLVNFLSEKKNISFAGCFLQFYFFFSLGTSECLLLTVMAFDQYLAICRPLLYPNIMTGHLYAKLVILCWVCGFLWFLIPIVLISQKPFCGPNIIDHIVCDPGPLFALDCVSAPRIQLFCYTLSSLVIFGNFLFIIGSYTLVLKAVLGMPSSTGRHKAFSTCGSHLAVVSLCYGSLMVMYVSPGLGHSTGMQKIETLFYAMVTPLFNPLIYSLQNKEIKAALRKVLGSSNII

Experiments:
Settings in all cases: stereoisomer not certain
O11H1 [1] = system: T1, O11H1
T1 sequence (whole entry): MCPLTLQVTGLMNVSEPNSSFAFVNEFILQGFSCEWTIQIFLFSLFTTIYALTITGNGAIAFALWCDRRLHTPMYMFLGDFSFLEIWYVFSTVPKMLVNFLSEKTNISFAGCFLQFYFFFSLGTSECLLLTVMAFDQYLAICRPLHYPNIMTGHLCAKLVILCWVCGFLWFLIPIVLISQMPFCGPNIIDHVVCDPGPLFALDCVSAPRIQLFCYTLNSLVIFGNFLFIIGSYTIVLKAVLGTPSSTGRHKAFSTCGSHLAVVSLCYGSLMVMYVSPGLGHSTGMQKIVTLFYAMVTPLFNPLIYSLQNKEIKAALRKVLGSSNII
Procedure, shortened: (§1)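 Assay methods differ from source to source, frequently being transient luciferase assays in mammalian cell lines. For each receptor–molecule pair, the label responsive (active) applies when the original authors judged the measured signal statistically different from baseline, and non-responsive (inactive) applies otherwise.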

O11H1 [2] = system: T2, O11H1; remark: listed apart in the source
T2 sequence (whole entry): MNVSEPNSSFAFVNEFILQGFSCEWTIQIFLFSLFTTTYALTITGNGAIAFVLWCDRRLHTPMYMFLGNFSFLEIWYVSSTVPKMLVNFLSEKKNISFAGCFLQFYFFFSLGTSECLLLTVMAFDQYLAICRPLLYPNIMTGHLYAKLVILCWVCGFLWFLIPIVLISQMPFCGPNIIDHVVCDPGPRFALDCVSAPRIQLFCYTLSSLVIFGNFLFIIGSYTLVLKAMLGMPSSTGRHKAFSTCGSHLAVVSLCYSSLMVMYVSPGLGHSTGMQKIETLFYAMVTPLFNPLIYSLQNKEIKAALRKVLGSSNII
Procedure, shortened: as §1

O11H2 = system: T3, O11H2
T3 sequence (whole entry): T1 sequence (whole entry) with F90S, T105K, H146L, C156Y, M181K, V192I, N218S, I235L, T243M, V289E
Procedure, shortened: as §1

O11H4 = system: T4, O11H4
T4 sequence (whole entry): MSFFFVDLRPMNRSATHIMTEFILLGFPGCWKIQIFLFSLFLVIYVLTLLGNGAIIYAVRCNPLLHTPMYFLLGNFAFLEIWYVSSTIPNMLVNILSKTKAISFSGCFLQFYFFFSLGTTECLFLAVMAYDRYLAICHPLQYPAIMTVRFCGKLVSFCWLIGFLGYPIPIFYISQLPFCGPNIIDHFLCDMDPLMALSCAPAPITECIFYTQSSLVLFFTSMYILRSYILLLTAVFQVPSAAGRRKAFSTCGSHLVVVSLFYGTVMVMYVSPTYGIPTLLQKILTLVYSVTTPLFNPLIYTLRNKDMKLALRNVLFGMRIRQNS
Procedure, shortened: as §1

O11L1 = system: T5, O11L1
T5 sequence (whole entry): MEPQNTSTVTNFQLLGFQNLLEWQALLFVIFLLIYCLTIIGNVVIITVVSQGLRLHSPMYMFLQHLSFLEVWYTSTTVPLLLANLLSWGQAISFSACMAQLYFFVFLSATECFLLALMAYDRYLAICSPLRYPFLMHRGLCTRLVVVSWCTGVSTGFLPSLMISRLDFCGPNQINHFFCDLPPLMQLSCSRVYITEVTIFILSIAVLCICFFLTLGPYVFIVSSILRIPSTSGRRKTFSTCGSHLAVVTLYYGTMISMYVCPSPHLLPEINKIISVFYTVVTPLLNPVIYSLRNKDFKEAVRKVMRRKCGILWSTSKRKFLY
Procedure, shortened: as §1

O12D2 = system: T6, O12D2
T6 sequence (whole entry): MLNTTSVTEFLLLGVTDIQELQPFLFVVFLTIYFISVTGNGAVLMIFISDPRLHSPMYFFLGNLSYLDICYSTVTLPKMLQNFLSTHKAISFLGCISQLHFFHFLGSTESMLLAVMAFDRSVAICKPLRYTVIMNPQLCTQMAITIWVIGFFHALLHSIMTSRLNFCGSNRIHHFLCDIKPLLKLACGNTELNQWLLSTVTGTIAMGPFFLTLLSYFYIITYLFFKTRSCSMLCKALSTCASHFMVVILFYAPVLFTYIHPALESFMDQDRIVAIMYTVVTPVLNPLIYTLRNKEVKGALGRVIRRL
Procedure, shortened: as §1

O13C3 = system: T7, O13C3
T7 sequence (whole entry): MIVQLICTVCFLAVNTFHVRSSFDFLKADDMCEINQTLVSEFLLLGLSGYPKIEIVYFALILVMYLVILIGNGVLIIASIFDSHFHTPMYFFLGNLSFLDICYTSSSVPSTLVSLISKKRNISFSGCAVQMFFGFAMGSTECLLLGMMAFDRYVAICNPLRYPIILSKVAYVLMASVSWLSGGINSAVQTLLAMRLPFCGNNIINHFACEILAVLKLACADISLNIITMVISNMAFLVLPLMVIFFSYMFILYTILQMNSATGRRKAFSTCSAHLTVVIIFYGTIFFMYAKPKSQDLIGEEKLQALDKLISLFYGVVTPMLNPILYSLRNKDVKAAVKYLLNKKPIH
Procedure, shortened: as §1

O13C5 = system: T8, O13C5
T8 sequence (whole entry): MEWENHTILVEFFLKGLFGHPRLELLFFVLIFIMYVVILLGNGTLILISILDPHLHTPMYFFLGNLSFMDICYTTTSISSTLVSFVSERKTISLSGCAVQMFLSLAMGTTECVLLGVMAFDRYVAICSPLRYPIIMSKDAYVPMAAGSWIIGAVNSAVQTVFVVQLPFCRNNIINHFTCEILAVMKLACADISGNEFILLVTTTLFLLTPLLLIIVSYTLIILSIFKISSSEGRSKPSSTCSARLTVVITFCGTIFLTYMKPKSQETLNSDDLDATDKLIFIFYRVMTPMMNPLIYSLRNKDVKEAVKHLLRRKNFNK
Procedure, shortened: as §1

O13C7 = system: T9, O13C7
T9 sequence (whole entry): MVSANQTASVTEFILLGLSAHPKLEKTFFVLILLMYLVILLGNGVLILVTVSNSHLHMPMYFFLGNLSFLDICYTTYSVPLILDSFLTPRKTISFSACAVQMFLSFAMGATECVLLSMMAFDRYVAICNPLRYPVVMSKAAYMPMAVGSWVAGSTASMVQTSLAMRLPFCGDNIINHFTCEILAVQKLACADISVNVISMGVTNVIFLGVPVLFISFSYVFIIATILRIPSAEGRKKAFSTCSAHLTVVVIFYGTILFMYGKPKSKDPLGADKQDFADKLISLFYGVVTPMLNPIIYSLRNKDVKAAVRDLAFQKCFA
Procedure, shortened: as §1

O13C9 = system: T10, O13C9
T10 sequence (whole entry): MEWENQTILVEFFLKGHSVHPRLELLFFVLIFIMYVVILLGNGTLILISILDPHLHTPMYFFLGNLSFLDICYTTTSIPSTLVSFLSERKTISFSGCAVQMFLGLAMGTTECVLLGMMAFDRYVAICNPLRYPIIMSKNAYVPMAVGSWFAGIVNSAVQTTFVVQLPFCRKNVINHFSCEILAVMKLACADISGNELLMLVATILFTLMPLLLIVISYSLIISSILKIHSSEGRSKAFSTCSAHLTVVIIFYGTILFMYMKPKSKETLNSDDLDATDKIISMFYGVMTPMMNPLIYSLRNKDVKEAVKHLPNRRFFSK
Procedure, shortened: as §1

O13D1 [3] = system: T11, O13D1
T11 sequence (whole entry): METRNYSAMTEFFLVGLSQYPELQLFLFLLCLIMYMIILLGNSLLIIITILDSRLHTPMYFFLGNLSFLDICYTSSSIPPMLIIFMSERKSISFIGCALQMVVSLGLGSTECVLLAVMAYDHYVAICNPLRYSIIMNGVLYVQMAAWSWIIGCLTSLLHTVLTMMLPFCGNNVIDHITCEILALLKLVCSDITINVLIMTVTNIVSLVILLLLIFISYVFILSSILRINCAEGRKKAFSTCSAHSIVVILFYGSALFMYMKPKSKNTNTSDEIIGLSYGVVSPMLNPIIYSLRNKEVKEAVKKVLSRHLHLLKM
Procedure, shortened: as §1

O13D1 [4] = system: T12, O13D1; remark: listed apart in the source
T12 sequence (whole entry): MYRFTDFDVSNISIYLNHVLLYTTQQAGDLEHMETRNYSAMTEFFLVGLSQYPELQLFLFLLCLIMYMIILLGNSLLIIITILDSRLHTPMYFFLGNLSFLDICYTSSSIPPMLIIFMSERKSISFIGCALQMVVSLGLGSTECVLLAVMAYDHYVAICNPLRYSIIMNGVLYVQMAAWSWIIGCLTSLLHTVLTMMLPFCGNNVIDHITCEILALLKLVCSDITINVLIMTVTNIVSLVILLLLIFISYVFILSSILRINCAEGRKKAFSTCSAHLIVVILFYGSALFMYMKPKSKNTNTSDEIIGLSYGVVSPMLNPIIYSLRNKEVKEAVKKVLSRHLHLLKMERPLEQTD
Procedure, shortened: as §1

O13F1 = system: T13, O13F1
T13 sequence (whole entry): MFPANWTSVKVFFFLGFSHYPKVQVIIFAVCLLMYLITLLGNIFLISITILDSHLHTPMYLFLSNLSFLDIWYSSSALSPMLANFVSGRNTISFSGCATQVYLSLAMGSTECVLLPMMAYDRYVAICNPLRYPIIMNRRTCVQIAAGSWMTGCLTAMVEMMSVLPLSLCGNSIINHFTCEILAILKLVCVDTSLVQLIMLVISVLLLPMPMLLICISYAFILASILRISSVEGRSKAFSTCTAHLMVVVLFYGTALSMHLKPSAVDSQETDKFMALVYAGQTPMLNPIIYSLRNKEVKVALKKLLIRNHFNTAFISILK
Procedure, shortened: as §1

O13G1 = system: T14, O13G1
T14 sequence (whole entry): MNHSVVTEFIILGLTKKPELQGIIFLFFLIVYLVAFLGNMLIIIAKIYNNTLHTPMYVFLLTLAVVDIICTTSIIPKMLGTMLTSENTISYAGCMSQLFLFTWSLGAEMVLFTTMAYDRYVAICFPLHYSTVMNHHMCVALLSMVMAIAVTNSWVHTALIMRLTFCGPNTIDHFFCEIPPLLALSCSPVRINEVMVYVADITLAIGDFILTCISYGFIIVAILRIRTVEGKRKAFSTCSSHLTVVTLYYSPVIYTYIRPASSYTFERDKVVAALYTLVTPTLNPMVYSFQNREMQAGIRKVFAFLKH
Procedure, shortened: as §1

O13J1 = system: T15, O13J1
T15 sequence (whole entry): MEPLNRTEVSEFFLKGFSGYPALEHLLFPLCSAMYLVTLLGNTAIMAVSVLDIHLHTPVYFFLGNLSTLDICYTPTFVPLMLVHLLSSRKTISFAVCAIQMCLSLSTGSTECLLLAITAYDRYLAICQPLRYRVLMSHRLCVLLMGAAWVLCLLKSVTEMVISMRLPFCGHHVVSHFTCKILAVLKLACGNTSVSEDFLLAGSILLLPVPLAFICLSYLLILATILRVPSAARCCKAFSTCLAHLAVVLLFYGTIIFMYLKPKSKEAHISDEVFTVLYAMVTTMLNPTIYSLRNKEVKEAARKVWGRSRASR
Procedure, shortened: as §1

Row | Structure (SMILES) | odorant receptor agonist call (O11H1 [1]) | odorant receptor agonist call (O11H1 [2]) | odorant receptor agonist call (O11H2) | odorant receptor agonist call (O11H4) | odorant receptor agonist call (O11L1) | odorant receptor agonist call (O12D2) | odorant receptor agonist call (O13C3) | odorant receptor agonist call (O13C5) | odorant receptor agonist call (O13C7) | odorant receptor agonist call (O13C9) | odorant receptor agonist call (O13D1 [3]) | odorant receptor agonist call (O13D1 [4]) | odorant receptor agonist call (O13F1) | odorant receptor agonist call (O13G1) | odorant receptor agonist call (O13J1)
1 | c1ccc(Oc2ccccc2)cc1 | inactive | inactive | inactive | inactive | inactive | inactive | inactive | inactive | inactive | inactive | inactive | inactive | inactive | inactive | inactive
2 | C=CCSCC=C | inactive | inactive | inactive | inactive | inactive | inactive | inactive | inactive | inactive | inactive | inactive | inactive | inactive | inactive | inactive
3 | CC1CCC(C(C)C)C(O)C1 (stereo not given) | inactive | inactive | inactive | inactive | inactive | inactive | inactive | active | inactive | inactive | active | inactive | inactive | inactive | inactive
4 | CC(C)=CCCC(C)=CC=O | inactive | inactive | inactive | inactive | inactive | inactive | inactive | inactive | inactive | inactive | inactive | inactive | inactive | inactive | inactive
5 | CC=Cc1ccc(O)c(OC)c1 | inactive | inactive | inactive | inactive | inactive | inactive | inactive | inactive | inactive | inactive | inactive | inactive | inactive | inactive | inactive
